Values of other authors in US8882743B2, “Apparatus and method for application of a pharmaceutical to the tympanic membrane for photodynamic laser myringotomy” (priority 2006, dated 2014).
At least one structure is not confirmed: it was looked up by name or label, or the drawing left a doubt.

System: tympanic membrane
Details: post-operative dexamethasone added to lance myringotomy with mitomycin-C; compared with myringotomy with pressure equalization tube insertion

Question: Which “time required for closure of the fistulae formed (further effect of post-operative anti-inflammatory agent)” value does the source give for `C[C@@H]1C[C@H]2[C@@H]3CCC4=CC(=O)C=C[C@]4(C)[C@@]3(F)[C@@H](O)C[C@]2(C)[C@@]1(O)C(=O)CO` [dexamethasone] here?
Answer: The value was “further improved these results”.
